From patent publication US6657045 (NEW ENGLAND MEDICAL CENTER HOSPITALS, dated 2003)

Molecular target: GP900 (>900,000 Mr glycoprotein of Cryptosporidium parvum) (Cryptosporidium parvum)
Experiment: biotinylated lectin blot of shed proteins

B1: Dolichos biflorus agglutinin (protein)
chain: ANIQSFSFKNFNSPSFILQGDATVSSGKLQLTKVKENGIPTPSSLGRAFYSSPIQIYDKSTGAVASWATSFTVKISAPSKASFADGIAFALVPVGSEPRRNGGYLGVFDSDVYNNSAQTVAVEFDTFSNSGWDPSMKHIGIDVNSIKSIATVSWDLANGENAEILITYNAATSLLVASLVHPSRRTSYILSERVDITNELPEYVSVGFSATTGLSEGYIETHDVLSWSFASKLPDDSTAEPLDLASYLVRNVL
modifications: biotinylated
binding: binds

B2: Arachis hypogea agglutinin (protein)
chain: AETVSFNFNSFSEGNPAINFQGDVTVLSNGNIQLTNLNKVNSVGRVLYAMPVRIWSSATGNVASFLTSFSFEMKDIKDYDPADGIIFFIAPEDTQIPAGSIGGGTLGVSDTKGAGHFVGVEFDTYSNSEYNDPPTDHVGIDVNSVDSVKTVPWNSVSGAVVKVTVIYDSSTKTLSVAVTNDNGDITTIAQVVDLKAKLPERVKFGFSASGSLGGRQIHLIRSWSFTSTLITTTRRS
modifications: biotinylated
binding: no binding

Results are given in words; binding and its absence hold for the method and conditions named. A result given as binding can be weak or reduced; the word gives no strength. Where a sequence is shown, tags or fusion partners need not be part of it.
